From patent US20220331364A1 come the findings set out here.

The assay concerns the target recombinant HER-2 (UniProt P04626). Description: flow cytometry; engineered T cells incubated with recombinant HER-2.

No constants are given. Whether binding was seen depends on the method and setting. Some binding calls cover weakened binding; strength is not graded here.

B1: Anti-HER-2 DARPin CAR (CD28-based CAR) (protein, not shown: small tags and cut ends)
chain: MSRGSDLGKKLLEAARAGQDDEVRILMANGADVNAKDEYGLTPLYLATAHGHLEIVEVLLKNGADVNAVDAIGFTPLHLAAFIGHLEIAEVLLKHGADVNAQDKFGKTAFDISIGNGNEDLAEILQKLN
In the case of B1, the binding result is “binds”.
